{
  "source": "patent US20250186627A1",
  "about": "“RADIOLABELED COMPOUNDS TARGETING THE PROSTATE-SPECIFIC MEMBRANE ANTIGEN” (PROVINCIAL HEALTH SERVICES AUTHORITY, priority 2022, published 2025)",
  "note": "For at least one compound, name, drawing or mass did not settle the structure. Some compounds share one wording; it may come from a single statement. *1 amine or outer side, *2 acyl side, *3 side chain or, on linkers, in order; H or OH if unused. Where a SMILES comes first, the peptide text is derived from it. [ ]: non-standard residue; d: D form. The star is where a group is joined. ξ: configuration not given here. Butanoyl(4-(4-NO2Ph)) = O=C(CCCc1ccc([N+](=O)[O-])cc1)*; DOTA = O=C(O)CN1CCN(CC(=O)O)CCN(CC(=O)*)CCN(CC(=O)O)CC1; ξAla(9-anthryl) = NC(Cc1c2ccccc2cc2ccccc12)C(=O)O; X2 = O=C(NC(CCCCN*)C(=O)O)NC(CC(F)C(=O)O)C(=O)O; X1 = O=C(C1CCC(CN[*:1])CC1)[*:2]; ξK = NCCCCC(N)C(=O)O",
  "data": [
    {"test_system": "NRG-mice bearing LNCaP tumors", "assay": "Biodistribution (and PET/SPECT imaging) in NRG-mice bearing LNCaP tumors", "format": "in vivo", "experimental": "LNCaP cell line was obtained from ATCC (LNCaP clone FGC, CRL-1740). It was established from a metastatic site of left supraclavicular lymph node of human prostatic adenocarcinoma. Cells were cultured in PRMI 1640 medium supplemented with 10% FBS, penicillin (100 U/mL) and streptomycin (100 μg/mL) at 37° C. in a humidified incubator containing 5% CO2. Cells grown to 80-90% confluence were then washed with sterile phosphate-buffered saline (1×PBS pH 7.4) and trypsinization. The collected cells number was counted with a Hausser Scientific (Horsham, PA) Hemacytometer. Approximately 10 million LNCaP cells were inoculated into the left dorsal flank of immunocomprised NRG mice. The tumours were allowed to grow for 4-6 weeks and used for imaging and biodistribution studies when a volume of 200-600 mm^3 was reached.\nPET imaging experiments were conducted using Siemens Inveon micro PET/CT scanner. SPECT imaging experiments were conducted using an MILabs micro SPECT/CT scanner. Each tumor bearing mouse was injected 4-6 MBq of ^68Ga or 18.5 MBq of ^177Lu labeled tracer through the tail vein under anesthesia (2% isoflurane in oxygen). The mice were allowed to recover and roam freely in their cage. At pre-defined time point, the mice were sedated again with 2% isoflurane in oxygen inhalation and positioned in the scanner. A 10-min CT scan was conducted first for localization and attenuation correction after segmentation for reconstructing the PET or SPECT images. Then, a 10-min static PET imaging or a one hour (30 min×2 frames) of static SPECT scan was performed to determined uptake in tumor and other organs. The mice were kept warm by a heating pad during acquisition.\nFor biodistribution studies, the mice were injected with the radiotracer as described above. […] The collected organs/tissues were weighed and counted using a Perkin Elmer (Waltham, MA) Wizard2 2480 gamma counter. The uptake in each organ/tissue was normalized to the injected dose (radioactivity) using a standard curve, and expressed as the percentage of the injected dose per gram of tissue (% ID/g).", "values": [
      {"smiles": "COc1ccc(CCCC(=O)NCC(=O)NC(CCCCNC(=O)CN2CCN(CC(=O)[O-])CCN(CC(=O)[O-])CCN(CC(=O)[O-])CC2)CC(=O)NCC2CCC(C(=O)NC(Cc3c4ccccc4cc4ccccc34)C(=O)NCCCCC(NC(=O)NC(CCCC(=O)O)C(=O)O)C(=O)O)CC2)cc1.[68Ga+3]", "note": "(stereo not drawn) [^68Ga-CCZ02015]", "Tumor uptake and background tissue clearance": "good tumor uptake and overall background tissue clearance"},
      {"smiles": "COc1ccc(CCCC(=O)NCC(=O)NC(CCCCNC(=O)CN2CCN(CC(=O)[O-])CCN(CC(=O)[O-])CCN(CC(=O)[O-])CC2)CC(=O)NCC2CCC(C(=O)NC(Cc3c4ccccc4cc4ccccc34)C(=O)NCCCCC(NC(=O)NC(CC(F)C(=O)O)C(=O)O)C(=O)O)CC2)cc1.[177Lu+3]", "note": "(stereo not drawn) [^177Lu-CCZ02019]", "Tumor uptake and background tissue clearance": "good tumor uptake and overall background tissue clearance"},
      {"smiles": "O=C([O-])CN1CCN(CC(=O)[O-])CCN(CC(=O)NCCCCC(NC(=O)CNC(=O)CCCc2ccc([N+](=O)[O-])cc2)C(=O)NCC(=O)NCC2CCC(C(=O)NC(Cc3c4ccccc4cc4ccccc34)C(=O)NCCCCC(NC(=O)NC(CC(F)C(=O)O)C(=O)O)C(=O)O)CC2)CCN(CC(=O)[O-])CC1.[68Ga+3]", "note": "(stereo not drawn) [^68Ga-CCZ02025] ({Butanoyl(4-(4-NO2Ph))}-G[ξK](DOTA)G[X1][ξAla(9-anthryl)]-X2)", "Tumor uptake and background tissue clearance": "good tumor uptake and overall background tissue clearance"}
    ]}
  ]
}
